Data: paper PMC5385220
These are yes or no findings as the source states them, for the method shown. In cells and extracts the contact can be indirect. Some entries that bind do so weakly or less than the wild type.

Amino acid sequences for entries named in this document (tags omitted).
UniProt Q13526: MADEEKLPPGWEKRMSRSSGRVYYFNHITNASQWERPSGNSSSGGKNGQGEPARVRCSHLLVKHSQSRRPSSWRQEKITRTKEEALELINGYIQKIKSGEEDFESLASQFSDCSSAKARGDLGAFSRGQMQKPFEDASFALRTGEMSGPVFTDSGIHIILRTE
UniProt Q9BYB0: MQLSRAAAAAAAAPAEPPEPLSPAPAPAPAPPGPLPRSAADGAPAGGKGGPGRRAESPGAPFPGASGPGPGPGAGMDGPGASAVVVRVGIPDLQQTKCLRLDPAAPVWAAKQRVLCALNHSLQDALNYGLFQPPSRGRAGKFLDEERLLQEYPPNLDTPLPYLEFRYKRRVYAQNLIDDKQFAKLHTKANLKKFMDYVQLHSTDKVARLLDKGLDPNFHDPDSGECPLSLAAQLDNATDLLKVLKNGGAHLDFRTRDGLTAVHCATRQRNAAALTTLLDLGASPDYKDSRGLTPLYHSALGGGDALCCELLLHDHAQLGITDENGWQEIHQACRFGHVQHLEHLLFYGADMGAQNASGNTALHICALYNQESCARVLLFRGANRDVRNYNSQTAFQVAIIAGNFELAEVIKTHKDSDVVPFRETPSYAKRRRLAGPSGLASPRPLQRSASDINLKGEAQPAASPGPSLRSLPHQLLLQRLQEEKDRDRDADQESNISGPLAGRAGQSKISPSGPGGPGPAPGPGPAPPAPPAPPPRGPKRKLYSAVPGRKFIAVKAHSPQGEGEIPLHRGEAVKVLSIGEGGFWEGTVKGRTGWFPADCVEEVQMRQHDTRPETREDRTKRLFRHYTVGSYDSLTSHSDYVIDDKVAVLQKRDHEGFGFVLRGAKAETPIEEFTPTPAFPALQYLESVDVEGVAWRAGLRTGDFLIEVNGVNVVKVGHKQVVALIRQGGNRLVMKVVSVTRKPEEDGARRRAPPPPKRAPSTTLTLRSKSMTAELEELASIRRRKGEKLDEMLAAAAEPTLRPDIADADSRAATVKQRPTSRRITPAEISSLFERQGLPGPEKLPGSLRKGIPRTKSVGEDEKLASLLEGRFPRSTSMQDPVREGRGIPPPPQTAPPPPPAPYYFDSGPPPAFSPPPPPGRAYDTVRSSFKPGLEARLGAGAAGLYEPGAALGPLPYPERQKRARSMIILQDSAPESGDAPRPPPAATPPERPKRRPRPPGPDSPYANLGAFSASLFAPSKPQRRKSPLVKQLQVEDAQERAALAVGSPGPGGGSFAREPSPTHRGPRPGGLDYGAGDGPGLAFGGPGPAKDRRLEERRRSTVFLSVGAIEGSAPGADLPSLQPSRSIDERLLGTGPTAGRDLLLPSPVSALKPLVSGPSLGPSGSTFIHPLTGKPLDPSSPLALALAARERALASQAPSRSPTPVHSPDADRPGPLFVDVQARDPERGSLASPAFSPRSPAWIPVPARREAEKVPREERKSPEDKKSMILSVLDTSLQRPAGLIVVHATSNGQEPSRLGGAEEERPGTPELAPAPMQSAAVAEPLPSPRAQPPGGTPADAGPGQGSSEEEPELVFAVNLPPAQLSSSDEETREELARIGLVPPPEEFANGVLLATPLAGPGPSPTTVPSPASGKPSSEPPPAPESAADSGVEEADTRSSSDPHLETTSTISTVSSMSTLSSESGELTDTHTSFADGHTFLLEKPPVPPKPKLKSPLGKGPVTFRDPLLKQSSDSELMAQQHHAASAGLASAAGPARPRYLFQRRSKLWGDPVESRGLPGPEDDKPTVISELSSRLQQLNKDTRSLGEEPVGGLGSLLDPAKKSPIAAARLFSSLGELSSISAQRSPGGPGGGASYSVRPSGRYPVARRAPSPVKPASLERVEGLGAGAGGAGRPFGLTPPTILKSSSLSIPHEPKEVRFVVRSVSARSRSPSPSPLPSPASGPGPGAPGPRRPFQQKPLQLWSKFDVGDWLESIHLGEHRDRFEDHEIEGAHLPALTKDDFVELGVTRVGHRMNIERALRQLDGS

Target: Peptidyl-prolyl cis-trans isomerase NIMA-interacting 1 (human (endogenous in frontal cortical tissue)) (UniProt Q13526)
Test: co-IP; synaptosomes (200 ug protein) of human control brain cortical tissue solubilised in 50 mM Tris pH 7.5, 100 mM NaCl, 1.5 mM EGTA, 0.1% SDS, 1% Triton X-100; 100,000g supernatant incubated with rabbit anti-Pin1 or anti-Shank3 plus Protein G agarose at 4°C overnight; rabbit IgG as negative control; Western blot

In the case of “Shank3 protein (from UniProt Q9BYB0 1-1806)”, the binding is reported as “binds”.
